For 1 substance, binding results are on record in article PMC6525466.

Sequences of proteins named here, by UniProt entry; tags and fusion partners are left off.
UniProt O95863: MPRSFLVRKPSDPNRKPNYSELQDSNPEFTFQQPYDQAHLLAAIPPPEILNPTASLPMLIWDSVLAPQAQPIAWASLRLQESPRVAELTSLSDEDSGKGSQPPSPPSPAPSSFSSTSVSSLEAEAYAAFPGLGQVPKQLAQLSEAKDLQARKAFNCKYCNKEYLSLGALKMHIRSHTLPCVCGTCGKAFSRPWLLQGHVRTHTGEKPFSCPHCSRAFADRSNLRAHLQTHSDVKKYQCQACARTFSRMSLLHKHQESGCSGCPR
UniProt P08047: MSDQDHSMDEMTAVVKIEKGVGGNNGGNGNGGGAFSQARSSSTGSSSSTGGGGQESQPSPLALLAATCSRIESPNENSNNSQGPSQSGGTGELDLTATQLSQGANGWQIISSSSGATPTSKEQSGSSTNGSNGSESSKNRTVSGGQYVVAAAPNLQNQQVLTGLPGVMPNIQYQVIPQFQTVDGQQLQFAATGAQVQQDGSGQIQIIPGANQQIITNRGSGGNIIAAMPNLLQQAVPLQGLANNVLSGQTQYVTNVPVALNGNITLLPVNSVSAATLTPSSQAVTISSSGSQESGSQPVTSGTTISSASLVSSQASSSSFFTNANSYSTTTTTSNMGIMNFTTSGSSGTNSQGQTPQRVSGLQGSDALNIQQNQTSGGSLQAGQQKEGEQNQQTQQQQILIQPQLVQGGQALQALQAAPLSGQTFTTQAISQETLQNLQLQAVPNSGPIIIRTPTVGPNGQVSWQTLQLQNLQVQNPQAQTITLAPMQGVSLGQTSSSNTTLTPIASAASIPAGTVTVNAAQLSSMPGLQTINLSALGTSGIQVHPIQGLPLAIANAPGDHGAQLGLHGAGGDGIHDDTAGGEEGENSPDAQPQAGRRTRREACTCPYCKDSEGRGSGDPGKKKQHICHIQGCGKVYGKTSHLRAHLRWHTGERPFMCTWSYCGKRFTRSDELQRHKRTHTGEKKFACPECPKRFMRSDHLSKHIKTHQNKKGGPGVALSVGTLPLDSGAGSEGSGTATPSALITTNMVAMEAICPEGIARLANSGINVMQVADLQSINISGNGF

The target in the assay is HA-Snail (UniProt O95863). Put plainly: co-IP; Myc-Ajuba, Flag-SP1 and HA-Snail expressed alone or in combination in 293T cells; co-IP with anti-HA or anti-Flag antibodies.

These are yes or no findings as the source states them, for the method shown. Binding seen in cells or lysates may run through a third protein.

As for Flag-SP1 (from UniProt P08047 1-785), the binding result is given as “no binding”.
